Reference: article PMC7252518
No constants are given. Whether binding was seen depends on the method and setting. Binding seen in cells or lysates may run through a third protein. Some results given as binding are weak or reduced against the parent protein; the word gives no strength.

Chains of the proteins cited; added tags and fusions are not shown. Lines headed by an entry give the natural chain unless they say otherwise; changes in a name come on top.
UniProt Q15910: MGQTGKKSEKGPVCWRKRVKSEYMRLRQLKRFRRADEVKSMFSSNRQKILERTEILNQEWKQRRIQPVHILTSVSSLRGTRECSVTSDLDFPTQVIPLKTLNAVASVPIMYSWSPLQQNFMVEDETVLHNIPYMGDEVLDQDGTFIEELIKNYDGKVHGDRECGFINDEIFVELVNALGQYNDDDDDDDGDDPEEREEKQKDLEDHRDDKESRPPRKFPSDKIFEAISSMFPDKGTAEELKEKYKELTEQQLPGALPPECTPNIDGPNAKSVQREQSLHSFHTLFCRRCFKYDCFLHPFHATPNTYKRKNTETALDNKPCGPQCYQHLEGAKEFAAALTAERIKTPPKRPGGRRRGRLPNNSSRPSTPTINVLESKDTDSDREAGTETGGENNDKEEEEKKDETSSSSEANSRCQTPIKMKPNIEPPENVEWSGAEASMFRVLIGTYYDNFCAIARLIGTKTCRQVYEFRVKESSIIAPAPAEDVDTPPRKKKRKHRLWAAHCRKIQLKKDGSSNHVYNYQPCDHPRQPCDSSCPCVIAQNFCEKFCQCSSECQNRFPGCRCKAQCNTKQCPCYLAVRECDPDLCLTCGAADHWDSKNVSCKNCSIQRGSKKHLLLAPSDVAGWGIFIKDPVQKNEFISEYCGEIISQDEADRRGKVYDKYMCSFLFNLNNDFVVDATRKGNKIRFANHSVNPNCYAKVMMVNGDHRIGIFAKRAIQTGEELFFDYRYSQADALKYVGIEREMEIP
UniProt Q93009: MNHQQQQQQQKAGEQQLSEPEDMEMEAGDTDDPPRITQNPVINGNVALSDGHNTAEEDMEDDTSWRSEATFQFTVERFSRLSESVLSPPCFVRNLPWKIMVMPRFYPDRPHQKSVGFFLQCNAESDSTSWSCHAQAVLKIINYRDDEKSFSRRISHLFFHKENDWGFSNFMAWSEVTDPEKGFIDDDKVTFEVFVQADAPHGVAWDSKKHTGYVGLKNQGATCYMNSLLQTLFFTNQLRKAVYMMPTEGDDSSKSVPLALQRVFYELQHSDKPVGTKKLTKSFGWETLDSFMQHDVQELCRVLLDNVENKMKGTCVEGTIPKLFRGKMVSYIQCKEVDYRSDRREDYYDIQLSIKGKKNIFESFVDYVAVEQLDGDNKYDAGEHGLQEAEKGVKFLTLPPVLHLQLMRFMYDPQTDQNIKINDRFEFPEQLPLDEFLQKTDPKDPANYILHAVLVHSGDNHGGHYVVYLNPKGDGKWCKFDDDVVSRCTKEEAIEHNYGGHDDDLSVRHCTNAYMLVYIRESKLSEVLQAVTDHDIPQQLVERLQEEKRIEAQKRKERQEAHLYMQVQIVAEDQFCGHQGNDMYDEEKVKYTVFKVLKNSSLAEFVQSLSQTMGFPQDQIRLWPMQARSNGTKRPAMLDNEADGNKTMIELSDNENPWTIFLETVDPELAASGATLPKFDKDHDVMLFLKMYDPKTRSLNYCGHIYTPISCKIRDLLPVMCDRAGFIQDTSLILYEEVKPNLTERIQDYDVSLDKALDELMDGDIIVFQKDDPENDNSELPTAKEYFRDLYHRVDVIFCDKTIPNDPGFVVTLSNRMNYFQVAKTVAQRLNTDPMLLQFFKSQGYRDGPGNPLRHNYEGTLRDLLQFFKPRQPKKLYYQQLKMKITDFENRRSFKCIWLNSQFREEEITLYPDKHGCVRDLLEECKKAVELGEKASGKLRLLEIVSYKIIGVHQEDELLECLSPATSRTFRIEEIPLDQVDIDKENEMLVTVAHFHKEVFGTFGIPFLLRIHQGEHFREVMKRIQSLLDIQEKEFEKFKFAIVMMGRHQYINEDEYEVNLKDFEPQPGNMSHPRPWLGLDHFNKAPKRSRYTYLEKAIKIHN
UniProt Q9H9B1: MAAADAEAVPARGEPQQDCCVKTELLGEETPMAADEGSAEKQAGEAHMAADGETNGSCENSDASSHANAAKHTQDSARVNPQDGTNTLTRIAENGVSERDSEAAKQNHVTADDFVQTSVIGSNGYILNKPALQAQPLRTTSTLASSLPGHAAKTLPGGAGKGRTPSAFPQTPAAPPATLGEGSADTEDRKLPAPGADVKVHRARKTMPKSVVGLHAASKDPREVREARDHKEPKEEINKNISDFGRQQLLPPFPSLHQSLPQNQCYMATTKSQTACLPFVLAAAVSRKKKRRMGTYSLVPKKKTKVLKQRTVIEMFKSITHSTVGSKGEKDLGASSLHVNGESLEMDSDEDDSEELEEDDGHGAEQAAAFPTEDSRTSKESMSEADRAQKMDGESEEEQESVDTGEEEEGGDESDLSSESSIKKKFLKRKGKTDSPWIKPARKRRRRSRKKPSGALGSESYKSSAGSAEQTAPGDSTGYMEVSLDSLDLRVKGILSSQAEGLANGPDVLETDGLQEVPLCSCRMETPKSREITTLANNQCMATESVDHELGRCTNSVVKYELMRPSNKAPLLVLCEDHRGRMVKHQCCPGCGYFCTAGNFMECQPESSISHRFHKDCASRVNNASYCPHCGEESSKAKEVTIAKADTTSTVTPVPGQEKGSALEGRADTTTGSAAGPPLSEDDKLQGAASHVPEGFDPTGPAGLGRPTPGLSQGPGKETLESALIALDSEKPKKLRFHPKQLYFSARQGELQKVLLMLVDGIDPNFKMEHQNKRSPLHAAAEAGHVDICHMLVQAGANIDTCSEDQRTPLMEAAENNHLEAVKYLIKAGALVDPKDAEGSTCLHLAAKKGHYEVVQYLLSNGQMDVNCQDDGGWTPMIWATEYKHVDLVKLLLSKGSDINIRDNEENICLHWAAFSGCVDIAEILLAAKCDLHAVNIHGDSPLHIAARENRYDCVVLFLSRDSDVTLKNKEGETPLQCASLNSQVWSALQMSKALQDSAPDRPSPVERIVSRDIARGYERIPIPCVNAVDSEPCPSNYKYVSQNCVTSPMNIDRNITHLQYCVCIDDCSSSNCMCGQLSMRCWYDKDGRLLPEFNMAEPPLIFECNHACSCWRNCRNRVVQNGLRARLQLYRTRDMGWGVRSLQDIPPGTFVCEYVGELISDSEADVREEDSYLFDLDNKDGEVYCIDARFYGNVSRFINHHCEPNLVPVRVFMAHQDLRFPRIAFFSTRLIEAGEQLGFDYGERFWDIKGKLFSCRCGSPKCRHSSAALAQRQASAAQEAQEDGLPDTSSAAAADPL

Experiments:
[1] = molecular target: HA-EZH2 Y111L (therapy-resistant mutant) (UniProt Q15910); assay: co-IP; Flag-USP7 co-expressed in HEK293T cells with HA-tagged EZH2 mutants; lysates immunoprecipitated with HA antibody, immunoblotted with anti-Flag or anti-HA
[2] = molecular target: HA-EZH2 Y641N/Y661D (therapy-resistant mutant) (UniProt Q15910); assay: as above
[3] = molecular target: USP7 as used in the immunoprecipitation test of histone-modifying enzymes (Figure S1) (UniProt Q93009); assay: co-IP; immunoprecipitation assay of several histone-modifying enzymes with USP7 (Figure S1A and B); details not shown
[4] = molecular target: EZH2, endogenous in DU145 cells (human (endogenous in DU145)) (UniProt Q15910); assay: co-IP; endogenous proteins; DU145 cell lysates immunoprecipitated with normal IgG or anti-EZH2 antibody, immunoblotted with anti-USP7 or anti-EZH2

Substance: Flag-USP7 (ubiquitin-specific protease 7, wild type) (from UniProt Q93009 1-1102) (enzyme)
- binding [1]: binds
- binding [2]: binds

Substance: GLP1 (from UniProt Q9H9B1 1-1298) (enzyme)
- binding [3]: binds

Substance: USP7, endogenous in DU145 cells (from UniProt Q93009 1-1102) (enzyme)
- binding [4]: binds
